# Reference: doi:10.1101/102285
# By UniProt entry, the sequences of proteins in these tests, tags left out.
# UniProt Q8IWV8: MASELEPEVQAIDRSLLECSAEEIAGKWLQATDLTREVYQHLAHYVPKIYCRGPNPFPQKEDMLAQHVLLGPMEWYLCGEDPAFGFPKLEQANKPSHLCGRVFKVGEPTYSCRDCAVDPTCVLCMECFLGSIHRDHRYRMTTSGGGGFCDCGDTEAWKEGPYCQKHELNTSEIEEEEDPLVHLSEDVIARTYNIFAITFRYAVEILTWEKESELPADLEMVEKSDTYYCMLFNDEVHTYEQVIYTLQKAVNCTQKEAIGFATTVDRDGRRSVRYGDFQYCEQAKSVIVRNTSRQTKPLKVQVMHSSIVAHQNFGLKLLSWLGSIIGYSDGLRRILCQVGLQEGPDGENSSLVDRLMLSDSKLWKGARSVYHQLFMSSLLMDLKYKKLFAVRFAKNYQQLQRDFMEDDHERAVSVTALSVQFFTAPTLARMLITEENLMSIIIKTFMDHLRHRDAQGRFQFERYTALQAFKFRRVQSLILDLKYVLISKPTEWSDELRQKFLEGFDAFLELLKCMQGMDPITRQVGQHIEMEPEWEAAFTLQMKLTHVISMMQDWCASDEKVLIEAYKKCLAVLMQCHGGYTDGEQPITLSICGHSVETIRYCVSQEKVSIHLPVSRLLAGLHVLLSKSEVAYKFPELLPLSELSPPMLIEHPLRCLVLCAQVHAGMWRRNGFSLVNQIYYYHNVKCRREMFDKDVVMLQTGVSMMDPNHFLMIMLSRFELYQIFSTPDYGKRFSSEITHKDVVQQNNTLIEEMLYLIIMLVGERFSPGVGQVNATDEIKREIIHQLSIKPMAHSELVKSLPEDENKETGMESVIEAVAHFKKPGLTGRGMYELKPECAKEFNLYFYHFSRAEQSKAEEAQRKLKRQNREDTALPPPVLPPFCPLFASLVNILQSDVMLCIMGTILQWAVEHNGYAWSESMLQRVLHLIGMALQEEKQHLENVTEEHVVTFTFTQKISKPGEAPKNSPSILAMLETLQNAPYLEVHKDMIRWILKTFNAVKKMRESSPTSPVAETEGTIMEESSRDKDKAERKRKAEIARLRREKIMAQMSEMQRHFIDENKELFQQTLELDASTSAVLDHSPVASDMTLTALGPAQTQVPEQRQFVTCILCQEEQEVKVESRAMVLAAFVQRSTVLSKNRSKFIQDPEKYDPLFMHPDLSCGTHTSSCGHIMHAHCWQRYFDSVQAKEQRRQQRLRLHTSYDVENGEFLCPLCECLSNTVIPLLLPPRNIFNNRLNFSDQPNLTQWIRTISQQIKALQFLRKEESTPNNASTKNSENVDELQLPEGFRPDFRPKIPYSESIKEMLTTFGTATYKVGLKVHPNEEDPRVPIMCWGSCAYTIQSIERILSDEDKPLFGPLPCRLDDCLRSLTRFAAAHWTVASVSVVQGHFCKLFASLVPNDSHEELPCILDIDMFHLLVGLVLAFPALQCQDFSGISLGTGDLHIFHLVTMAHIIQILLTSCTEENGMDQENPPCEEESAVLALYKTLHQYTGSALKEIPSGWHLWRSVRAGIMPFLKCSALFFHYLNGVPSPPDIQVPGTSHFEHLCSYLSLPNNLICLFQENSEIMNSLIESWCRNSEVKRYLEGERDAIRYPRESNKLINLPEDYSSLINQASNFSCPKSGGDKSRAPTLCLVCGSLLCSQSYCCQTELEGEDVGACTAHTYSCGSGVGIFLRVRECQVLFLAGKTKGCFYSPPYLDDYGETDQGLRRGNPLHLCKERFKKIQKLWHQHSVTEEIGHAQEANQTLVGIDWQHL
# Results are given in words; binding and its absence hold for the method and conditions named. In cells and extracts the contact can be indirect. These calls come from enrichment with a bait or labelling near it, and not all partners need be listed. Sequences can lack the tags named with a protein.
# Target: T1, TEX19.1-YFP (mouse) (UniProt Q99MV2)
# T1 sequence: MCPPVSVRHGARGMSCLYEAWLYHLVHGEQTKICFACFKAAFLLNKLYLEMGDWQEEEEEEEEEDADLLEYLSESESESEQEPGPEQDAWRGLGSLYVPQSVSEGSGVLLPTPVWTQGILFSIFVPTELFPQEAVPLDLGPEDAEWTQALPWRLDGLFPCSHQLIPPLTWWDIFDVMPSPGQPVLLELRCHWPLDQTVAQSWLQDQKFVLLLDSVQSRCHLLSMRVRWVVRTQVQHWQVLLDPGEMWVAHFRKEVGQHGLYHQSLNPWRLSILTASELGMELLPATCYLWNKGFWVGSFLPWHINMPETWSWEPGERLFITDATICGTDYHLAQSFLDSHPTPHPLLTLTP
# Experiment: affinity purification with mass spectrometry
substance,measurement,value
E3 ubiquitin ligase UBR2 (endogenous) (from UniProt Q8IWV8 1-1755) (enzyme),binding,binds
